# In PubChem BioAssay AID2284362 (EPA ToxCast):
# The shares of active, inactive and inconclusive entries below differ from those in the screen. A potency beside an inconclusive call is a rough fit, not a confirmed value. Calls of active or inactive are those of the source. The calls were made as follows: active = hit-call score of the fitted dose curve at least 0.9, where 1 is the maximum; inconclusive = response in the unintended direction; inactive = score below 0.9.
# Experiment: CCTE_Mundy_HCI_iCellGABA_NOG_NeuriteCount: CCTE's Neurite Outgrowth Assay in iCellGABA cells for Neurite Count, Mundy Lab
# Protocol: CCTE_Mundy_HCI_iCellGABA_NOG is a multiplexed, cell-based-readout assay that uses iCell GABANeurons from FUJIFILM Cellular Dynamics, Inc. (FCDI), human GABAergic enriched neurons derived from induced pluripotent stem (iPS) cells, with measurements taken at 50.33 hours after chemical dosing in a microplate: 96-well plate.CCTE_Mundy_HCI_iCellGABA_NOG_NeuriteCount is one of four components of the CCTE_Mundy_HCI_iCellGABA_NOG assay. It measures neurite outgrowth related to number of neurites using High Content Imaging of fluorescently labelled markers.Data from the assay component CCTE_Mundy_HCI_iCellGABA_NOG_NeuriteCount was analyzed at the endpoint CCTE_Mundy_HCI_iCellGABA_NOG_NeuriteCount in the positive analysis fitting direction relative to DMSO as the negative control and baseline of activity. Using a type of morphology reporter, loss-of-signal activity can be used to understand developmental effects.
# Exposure starts 2 hours post-plating by adding 10 ul of the working solution to 90 ul of media in the wells for a 1/10 dilution. Forty-eight hours after chemical treatment cells are fixed by direct addition of 100 ul of warm (37C) Dulbecco's phosphate buffered saline (DPBS) fixative solution containing 8% paraformaldehyde, 8% sucrose, and 0.1% of 3 mg/ml Hoechst 33342 into each well. Primary antibodies are prepared by dilution in Immunocytochemical Staining Buffer (ISB), 10X Dulbecco's PBS, 0.1% Saponin, 5% Bovine Serum Albumin, 0.5% NaN3 (Sodium Azide) and betaIII-tubulin (rabbit anti-betaIII-tubulin, 1:800) followed by Alexa Fluor-488 secondary (1:500) to label neuronal cell bodies and neurites. A Cellomics ArrayScan VTi HCS Reader is used for automated image acquisition and analysis of neurite outgrowth.
row,SMILES,AC50
1,CCOC(=O)CC(SP(=S)(OC)OC)C(=O)OCC (stereo not drawn),active: 74.1 µM
2,CCCSP(=O)(OCC)SCCC,inconclusive: 50 µM
3,CCOP(=O)(OCC)Oc1cc(C)nc(C(C)C)n1,inconclusive: 50 µM
